Library screen at single concentrations

The chains behind the UniProt entries cited, without tags or fusion partners. Residues count along the entry.
UniProt P9WPC5, whole entry: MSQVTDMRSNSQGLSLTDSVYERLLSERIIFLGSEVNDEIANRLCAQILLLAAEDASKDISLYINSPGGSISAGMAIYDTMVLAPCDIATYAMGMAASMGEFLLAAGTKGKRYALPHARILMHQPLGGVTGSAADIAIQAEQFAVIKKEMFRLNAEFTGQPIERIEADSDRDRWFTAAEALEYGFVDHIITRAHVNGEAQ
UniProt P9WPC3, whole entry partner: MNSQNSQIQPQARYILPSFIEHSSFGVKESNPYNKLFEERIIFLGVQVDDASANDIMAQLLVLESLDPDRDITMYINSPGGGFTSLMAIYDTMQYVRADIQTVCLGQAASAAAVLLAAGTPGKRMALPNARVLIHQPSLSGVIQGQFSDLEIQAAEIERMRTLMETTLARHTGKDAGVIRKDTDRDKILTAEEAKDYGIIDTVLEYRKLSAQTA
UniProt A4I591, 1-473: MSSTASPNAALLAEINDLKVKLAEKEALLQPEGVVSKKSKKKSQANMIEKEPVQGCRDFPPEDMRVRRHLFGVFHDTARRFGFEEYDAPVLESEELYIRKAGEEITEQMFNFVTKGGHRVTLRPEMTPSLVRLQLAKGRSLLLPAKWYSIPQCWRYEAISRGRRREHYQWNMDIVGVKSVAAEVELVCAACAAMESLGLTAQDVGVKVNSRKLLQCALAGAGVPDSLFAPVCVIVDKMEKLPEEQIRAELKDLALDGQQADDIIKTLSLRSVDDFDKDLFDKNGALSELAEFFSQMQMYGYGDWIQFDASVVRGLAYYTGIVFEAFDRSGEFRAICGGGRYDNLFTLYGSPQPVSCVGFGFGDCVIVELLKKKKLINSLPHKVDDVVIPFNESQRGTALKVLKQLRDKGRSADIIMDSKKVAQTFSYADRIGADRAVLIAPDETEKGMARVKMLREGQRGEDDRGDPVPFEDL

ClpP1P2: 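Protease assay of ClpP1P2, read by the AMC dye that it sets free. Target: ClpP1P2, Mycobacterium tuberculosis (UniProt P9WPC5 and UniProt P9WPC3). Compounds at 50 µM. Direction is inferred from only a few compounds that gave an IC50; most scored high, so higher reads as stronger inhibition. Most other retested compounds had strongly negative values. Of about 69,000 compounds tested this way, about 10 (0.015%) reached 50% or more in at least one test.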
LiHisRS: 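Histidine-tRNA ligase, Leishmania infantum (UniProt A4I591). Enzyme assay of histidyl-tRNA synthetase; the read-out is not stated. Compounds at 30 µM. The record gives no direction; compounds that gave an IC50 in retests scored well above the rest, so higher reads as stronger inhibition. The assay is labelled LdHisRS but filed under L. infantum. Of about 69,000 compounds tested this way, about 410 (0.6%) reached 50% or more in at least one test.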

Values are the deposited “Percent Effect”, in %.
The record does not define 0% and 100%; most values in the screen are far below 50% and negative numbers occur (in some assays of this library far below -100).
Compounds were drawn at random from those tested, without regard to their results.

Cc1nc(Nc2nncs2)cc(C2CCCN2)n1 (stereo not shown) gave ClpP1P2: 18.67%; LiHisRS: 10.14%. With CC1=C(CCN2C[C@H](O)[C@@H](N3CCOCC3)C2)C(C)(C)CCC1 the screen gave ClpP1P2: -11.35%; LiHisRS: 10.42%. O=C(NCC1CCCCO1)c1cc(Cn2cnc3ccccc32)[nH]n1 (stereo not shown) read ClpP1P2: -3.948%; LiHisRS: 24.18%. With Cc1nn(C)c2nc(NCCCN3CCCC(C(N)=O)C3)sc12 (stereo not shown) the screen gave ClpP1P2: -15.59%; LiHisRS: 27.17%. For CC[C@@H]1N(Cc2cc(OC)cc(OC)c2)CCC[C@]12CCC(=O)N2C the result was ClpP1P2: 0.7974%; LiHisRS: 15.6%. Result for O=C(C1CCCN(Cc2cccnc2)C1)N1CCc2sccc2C1 (stereo not shown) was ClpP1P2: 0.3811%; LiHisRS: 8.511%. CC(=O)CCC(=O)N1CCC2(CC1)N=C(CCC(C)C)NC2=O gave ClpP1P2: 2.718%; LiHisRS: 12.5%.

Cc1cc(C)nc(CN(C)C(=O)c2cccc(CCC(C)(C)O)c2)c1 gave ClpP1P2: 6.236%; LiHisRS: 5.208%. For Cc1c(C(C)NCC2CCCC2)cnn1-c1ccc(F)cc1F (stereo not shown) the result was ClpP1P2: -1.369%; LiHisRS: 7.895%. O=C(CNCC1CCCN1c1cccnn1)NCCc1cccs1 (stereo not shown) read ClpP1P2: -8.263%; LiHisRS: 21.88%. For Cc1cc(N2CCCN(C(=O)Cc3cccnc3)CC2)ccn1 the result was ClpP1P2: -27.98%; LiHisRS: 11.2%. Cc1cn(CC(=O)NC2CCN(CC3CC3)CC2)c2ccccc12 read ClpP1P2: 4.062%; LiHisRS: 21.21%. CCOCCC(=O)N1CC(=O)Nc2cc(Br)ccc21 read ClpP1P2: -10.65%; LiHisRS: 21.92%. With CNc1nc(C(=O)N2CCN(c3ccc(Cl)c(Cl)c3)CC2)cs1 the screen gave ClpP1P2: -2.582%; LiHisRS: 25.17%.

CCn1nc(CC(C)C)cc1C(=O)N1CC(c2ccncc2)C1 gave ClpP1P2: 2.316%; LiHisRS: 21.21%. CC(C)c1ccc(CNC(C)c2ccc(S(=O)(=O)N(C)C)cc2)cc1 (stereo not shown) gave ClpP1P2: -3.633%; LiHisRS: 0%. For Cc1ccc(C#N)c(N2CC(C)(C)[C@@](C)(O)C2)n1 the result was ClpP1P2: -11.51%; LiHisRS: 3.125%. FC1(F)CCN(Cc2ccccn2)CC12CCN(c1cccnc1)C2 (stereo not shown) gave ClpP1P2: 4.38%; LiHisRS: 15.04%. N#Cc1ccc(F)c(CN2CCCC2Cn2cccn2)c1 (stereo not shown) gave ClpP1P2: 10.05%; LiHisRS: 6.154%. With Cc1oc(C(=O)O)cc1S(=O)(=O)Nc1ccc(Br)cc1Cl the screen gave ClpP1P2: 0.2519%; LiHisRS: 1.739%. Result for CCCn1ncc(-c2nc3c(cnn3CC)[nH]2)c1C was ClpP1P2: -19.04%; LiHisRS: 9.836%.

Cc1[nH]ncc1C(=O)N1CCOC(c2cccs2)C1 (stereo not shown) gave ClpP1P2: -3.253%; LiHisRS: -5.051%. With CC(C)Oc1ccc(CNC(=O)C2CCC(=O)N2)cn1 (stereo not shown) the screen gave ClpP1P2: 4.026%; LiHisRS: -2.083%. For CC(C)NC(=O)[C@@H]1C[C@H]2OCC[C@H]2N(Cc2ccc3ccccc3n2)C1 the result was ClpP1P2: 6.216%; LiHisRS: -2%. Cc1cc(C(=O)N2CCc3nnc(N)cc3C2)c(C)n1-c1ccccc1 read ClpP1P2: -35.41%; LiHisRS: 32.17%. With Cn1cc(C(=O)Nc2cccc(F)c2)ccc1=O the screen gave ClpP1P2: 7.223%; LiHisRS: 26.47%. COc1ccc(N2CCN(C(=O)Cn3nccc3C)CC2(C)C)cc1 gave ClpP1P2: -3.62%; LiHisRS: 18.75%. CC(NC(=O)Cc1cc2c(cc1Cl)OCCO2)c1ccncn1 (stereo not shown) read ClpP1P2: -14.98%; LiHisRS: -2.083%.

CCSc1ccccc1C(=O)NCCn1nc(-n2cncn2)ccc1=O read ClpP1P2: -15.61%; LiHisRS: 17.39%. CC(C)c1cc(NC(=O)CN2CCCC2Cn2cncn2)on1 (stereo not shown) read ClpP1P2: -13.31%; LiHisRS: 11.4%. Result for CN(C)C[C@]12COC[C@H]1CN(C(=O)CCc1ccccc1)C2 was ClpP1P2: 0.5269%; LiHisRS: -76.36%. With CN1CCN(Cc2cn3c(n2)CN(Cc2ccccn2)CC3)CC1 the screen gave ClpP1P2: 17.3%; LiHisRS: 7.921%. For CCn1cc(CN2CCCN(C(=O)c3ccn(C)c(=O)c3)CC2)cn1 the result was ClpP1P2: 25.19%; LiHisRS: 24%. COc1ccc(F)c(-c2cc(C)nc(N)n2)c1 read ClpP1P2: -15.26%; LiHisRS: 3.419%. Result for N#Cc1ccc(CN2CCN(C(=O)C3CCC3)[C@@H]3CS(=O)(=O)C[C@@H]32)cc1 was ClpP1P2: -2.254%; LiHisRS: 12.26%.

Cc1ccccc1C(=O)N1CCO[C@H]2[C@H](OCCN(C)C)CC[C@@H]21 read ClpP1P2: -9.536%; LiHisRS: 18.06%. For CCO[C@@H]1CO[C@@]2(CCCN(C(=O)COc3ccccc3OC)C2)C1 the result was ClpP1P2: -4.284%; LiHisRS: 12.62%. Cc1ccc(CN2CCC3(CC2)CCN(Cc2ccco2)CC3)cc1 gave ClpP1P2: 3.206%; LiHisRS: 13.16%. Cc1nc(NCC(O)CN2CCCCCC2)c2c(C)noc2n1 (stereo not shown) read ClpP1P2: -4.596%; LiHisRS: 26.58%. COc1ccc(NC(=O)C2CC2)cc1OCc1cccnc1 gave ClpP1P2: 9.389%; LiHisRS: 19.15%. With CC(C)C(NC(=O)c1ccccc1F)C(=O)N1CCC2(CC1)OCCO2 (stereo not shown) the screen gave ClpP1P2: 10.05%; LiHisRS: 15.97%.

3 of the entries, repeated:

{"smiles": "Cc1[nH]ncc1C(=O)N1CCOC(c2cccs2)C1", "stereo": "stereo not shown", "ClpP1P2": -3.253, "LiHisRS": -5.051}
{"smiles": "CCn1cc(CN2CCCN(C(=O)c3ccn(C)c(=O)c3)CC2)cn1", "ClpP1P2": 25.19, "LiHisRS": 24}
{"smiles": "CCOCCC(=O)N1CC(=O)Nc2cc(Br)ccc21", "ClpP1P2": -10.65, "LiHisRS": 21.92}

From ChEMBL document CHEMBL3988442, “University of Dundee, Small-Polar-MMV Screening Library” (2021).